No constants are given. Whether binding was seen depends on the method and setting. In cells and extracts the contact can be indirect. Some binding calls cover weakened binding; strength is not graded here.

Sequences of proteins named here, by UniProt entry; tags and fusion partners are left off.
UniProt Q2EJA0: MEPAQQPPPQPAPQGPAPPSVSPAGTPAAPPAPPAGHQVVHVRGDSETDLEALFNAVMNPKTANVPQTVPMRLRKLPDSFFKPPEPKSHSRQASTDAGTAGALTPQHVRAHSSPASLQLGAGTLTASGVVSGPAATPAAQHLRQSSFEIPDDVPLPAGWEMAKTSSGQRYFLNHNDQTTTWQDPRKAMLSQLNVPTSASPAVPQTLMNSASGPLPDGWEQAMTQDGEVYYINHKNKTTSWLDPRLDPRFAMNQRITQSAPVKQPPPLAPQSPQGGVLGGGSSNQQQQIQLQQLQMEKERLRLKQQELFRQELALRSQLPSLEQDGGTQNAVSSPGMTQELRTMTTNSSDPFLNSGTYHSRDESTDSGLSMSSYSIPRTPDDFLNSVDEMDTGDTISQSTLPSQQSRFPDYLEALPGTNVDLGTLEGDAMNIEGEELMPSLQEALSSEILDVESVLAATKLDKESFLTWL

This test concerns the target T1, 14-3-3η protein (rat (endogenous in H9C2)) (UniProt P68511).
T1 sequence: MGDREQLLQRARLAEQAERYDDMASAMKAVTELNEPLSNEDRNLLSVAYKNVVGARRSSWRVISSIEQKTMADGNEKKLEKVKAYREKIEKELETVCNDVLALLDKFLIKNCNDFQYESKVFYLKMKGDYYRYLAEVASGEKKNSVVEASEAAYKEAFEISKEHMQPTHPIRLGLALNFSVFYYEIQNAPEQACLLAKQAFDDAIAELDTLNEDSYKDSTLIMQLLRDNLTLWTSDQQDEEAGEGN
As to the kind of experiment: co-IP; H9C2 cell lysate incubated with 5 ug Ywhah antibodies overnight at 4°C, Protein A/G PLUS-Agarose beads 4 hours at 4°C, washed three times with lysis buffer, Western blot. For orientation: In western blotting, separated proteins are transferred to a membrane and probed.

Turning to “Yes-associated protein (from UniProt Q2EJA0 1-469)”, the binding result is listed as “binds”.

The values above are taken from paper PMC11262655.
